Article PMC5292684, “High affinity anchoring of the decoration protein pb10 onto the bacteriophage T5 capsid” (Scientific Reports, 2017)
Results are given in words; binding and its absence hold for the method and conditions named. For part of these data: Binding can be weak; no strength is given. Where a sequence is shown, tags or fusion partners need not be part of it.

B1: pb10 N-terminal domain (NTD), residues 1 to 77 (domain or fragment, UniProt Q6QGD6 1-77)
chain: MIDYSGLRTIFGEKLPESHIFFATVAAHKYVPSYAFLRRELGLSSAHTNRKVWKKFVEAYGKAIPPAPPAPPLTLSK
B2: pb10 C-terminal domain (CTD), residues 72 to 164 (domain or fragment, UniProt Q6QGD6 72-164)
chain: PLTLSKDLTASMSVEEGAALTLSVTATGGTGPYTYAWTKDGSPIPDASGATYTKPTAAAEDAGSYKVTVTDSKQVSKDSTTCAVTVNPTVPGG
B3: decoration protein pb10 of bacteriophage T5, full-length, fused to a C-terminal histidine tag (natural protein, UniProt Q6QGD6 1-164, looked up)
chain: MIDYSGLRTIFGEKLPESHIFFATVAAHKYVPSYAFLRRELGLSSAHTNRKVWKKFVEAYGKAIPPAPPAPPLTLSKDLTASMSVEEGAALTLSVTATGGTGPYTYAWTKDGSPIPDASGATYTKPTAAAEDAGSYKVTVTDSKQVSKDSTTCAVTVNPTVPGG
notes: decoration protein pb10 of bacteriophage T5, 164 amino acids, GenBank AAU05286; Monomer by SEC-MALLS (17 kDa); 18.3 kDa with the His tag; also called pb10-His; His-tagged pb10; source: pET28b expression vector, purified (expression and purification detailed in SI); not shown: His-Tag, C-terminal, kept
B4: untagged pb10 (protein, UniProt Q6QGD6 1-164)
chain: B3 chain

Key:
[1] = target: bacteriophage T5 empty expanded capsid (without pb10) (bacteriophage T5); experiment: native gel or EMSA; purified capsids mixed with various amounts of pb10, NTD, CTD or mutants, 4 °C for 30 min; 1.5% native agarose gel in TAMg buffer (40 mM Tris-HCl, 20 mM acetic acid, 1 mM MgSO4, pH around 8.1), 25 V overnight, Coomassie blue; hexamers 150 nM, proteins 60 to 300 nM; both purified
[2] = target: bacteriophage T5 empty expanded capsid (without pb10) (bacteriophage T5); experiment: cryo-EM structure; icosahedral reconstructions of empty expanded capsids with pb10 (9 Å) and without pb10 (8 Å); pb8 homology model fitted into the hexamer density; both purified
[3] = target: bacteriophage T5 empty expanded capsid (without pb10) (bacteriophage T5); experiment: SPR; expanded capsids incubated with His-tagged pb10 at a molar ratio of 6.8 x 10^-3 pb10 per hexamer, captured on a Ni2+-NTA sensor chip; untagged pb10 injected over them; both purified
[4] = target: bacteriophage T5 empty expanded capsid (without pb10) (bacteriophage T5); experiment: SPR; expanded capsids incubated with His-tagged pb10 at a 10-fold higher ratio (6.8 x 10^-2 per hexamer), captured on a Ni2+-NTA sensor chip; untagged pb10 injected over them; both purified
[5] = target: bacteriophage T5 DNA-filled heads lacking pb10 (bacteriophage T5); experiment: native gel or EMSA; purified capsids mixed with various amounts of pb10, NTD, CTD or mutants, 4 °C for 30 min; 1.5% native agarose gel in TAMg buffer (40 mM Tris-HCl, 20 mM acetic acid, 1 mM MgSO4, pH around 8.1), 25 V overnight, Coomassie blue; hexamers 150 nM, proteins 60 to 300 nM; both purified
[6] = target: bacteriophage T5 empty expanded capsid (without pb10) (bacteriophage T5); experiment: condition: only capsids first incubated with His-tagged pb10 at 6.8 × 10^-2 per hexamer (already fully decorated); SPR; expanded capsids incubated with His-tagged pb10 at a 10-fold higher ratio (6.8 x 10^-2 per hexamer), captured on a Ni2+-NTA sensor chip; untagged pb10 injected over them; both purified

| Binder | binding [1] | binding [2] | binding [3] | binding [4] | binding [5] | binding [6] |
| --- | --- | --- | --- | --- | --- | --- |
| B1 | binds | – | – | – | – | – |
| B2 | no binding (tested: tenfold molar ratio) | – | – | – | – | – |
| B3 | binds | binds | binds | binds | binds | – |
| B4 | – | – | binds | – | – | no binding |
